# Reference: PMC6650482, “Tyrosine 51 residue of the syndecan-2 extracellular domain is involved in the interaction with and activation of pro-matrix metalloproteinase-7” (Scientific Reports, 2019)
# Chains of the proteins cited; added tags and fusions are not shown. Lines headed by an entry give the natural chain unless they say otherwise; changes in a name come on top. A line that says so, or that is headed by a name, gives the form on record, which may keep a tag or linker. Residues count along the entry.
# GST-tagged N-terminal extracellular domain of syndecan-2 (S2E-N, amino acid residues 19-78) (P34741, residues 19-78): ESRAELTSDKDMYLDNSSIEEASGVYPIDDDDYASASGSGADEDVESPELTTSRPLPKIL
# GST-tagged syndecan-2 extracellular domain with Tyr51 changed to Ala (Y51A) (P34741, form named): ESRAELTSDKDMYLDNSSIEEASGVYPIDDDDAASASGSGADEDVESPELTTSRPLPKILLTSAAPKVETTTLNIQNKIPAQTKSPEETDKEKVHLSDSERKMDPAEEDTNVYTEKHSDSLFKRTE
# UniProt P09237: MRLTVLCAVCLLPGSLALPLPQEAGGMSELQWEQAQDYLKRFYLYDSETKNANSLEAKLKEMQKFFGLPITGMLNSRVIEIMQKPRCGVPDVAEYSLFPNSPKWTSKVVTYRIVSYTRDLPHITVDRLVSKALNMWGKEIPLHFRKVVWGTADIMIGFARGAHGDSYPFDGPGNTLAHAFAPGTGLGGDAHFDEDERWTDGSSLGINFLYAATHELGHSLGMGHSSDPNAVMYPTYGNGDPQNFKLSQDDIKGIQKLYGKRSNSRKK
# No constants are given. Whether binding was seen depends on the method and setting. For some of these results: Binding calls can cover weak binding; strength is not graded here.
# T1: synthetic human syndecan-2 peptide (S2-P), extracellular domain residues 41-60 (human)
# T1 sequence (peptide): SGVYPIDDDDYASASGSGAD
# Legend:
# [1] = biological target: T1, synthetic human syndecan-2 peptide (S2-P), extracellular domain residues 41-60 (human); test: ELISA; plates coated with 600 ng S2-P; His-tagged MMP-7 pro-domains 500 ng/well, 2 h at 20 °C; anti-His tag antibody, IgG-HRP, TMB, A450; both purified
# [2] = biological target: GST-tagged N-terminal extracellular domain of syndecan-2 (S2E-N, amino acid residues 19-78) (human) (UniProt P34741); test: pull-down; purified GST-syndecan-2 proteins incubated with purified His-tagged MMP-7 pro-domain proteins (2 h at 4 °C where stated); materials bound to glutathione-agarose beads immunoblotted with anti-His tag antibody; both purified
# [3] = biological target: GST-tagged syndecan-2 extracellular domain with Tyr51 changed to Ala (Y51A) (human) (UniProt P34741); test: as above
# [4] = biological target: His-tagged MMP-7 pro-domain mutant lacking both linkers (ΔNC, residues 9-73) (human); test: NMR titration; 1H-15N HSQC of 15N-labelled ΔNC with S2-P up to molar ratio 1:15; 20 mM Na2HPO4 pH 6.0, 5 mM β-mercaptoethanol, 100 mM dodecylphosphocholine, 283 K; both purified
binding [1],binding [2],Molecule,further results
binds,,"His-tagged MMP-7 pro-domain mutant lacking the N-terminal linker (ΔN, residues 9-79) (human) (domain or fragment)",
,binds,His-tagged pro-domain of MMP-7 (His-PD) (from UniProt P09237) (domain or fragment),
,binds,His-tagged α2 helix-loop-α3 helix protein fragment (α2–3) of the MMP-7 pro-domain (from UniProt P09237) (domain or fragment),binding [3]: no binding
binds,,"His-tagged MMP-7 pro-domain mutant lacking both linkers (ΔNC, residues 9-73) (human) (domain or fragment)",
binds,,"His-tagged MMP-7 pro-domain mutant lacking the C-terminal linker (ΔC, residues 1-73) (human) (domain or fragment)",
,,"SGVYPIDDDDYASASGSGAD (human syndecan-2 extracellular domain residues 41-60; also called S2-P peptide; source: synthetic peptide (Fmoc solid-phase, Anygen Inc.)) [synthetic human syndecan-2 peptide (S2-P), extracellular domain residues 41-60]",binding [4]: binds
